# In the supplement of paper PMC10849652:
# The chains behind the UniProt entries cited, without tags or fusion partners. Where a name states a change or a piece, a line headed by the entry shows the natural chain unless it says otherwise.
# UniProt Q13469: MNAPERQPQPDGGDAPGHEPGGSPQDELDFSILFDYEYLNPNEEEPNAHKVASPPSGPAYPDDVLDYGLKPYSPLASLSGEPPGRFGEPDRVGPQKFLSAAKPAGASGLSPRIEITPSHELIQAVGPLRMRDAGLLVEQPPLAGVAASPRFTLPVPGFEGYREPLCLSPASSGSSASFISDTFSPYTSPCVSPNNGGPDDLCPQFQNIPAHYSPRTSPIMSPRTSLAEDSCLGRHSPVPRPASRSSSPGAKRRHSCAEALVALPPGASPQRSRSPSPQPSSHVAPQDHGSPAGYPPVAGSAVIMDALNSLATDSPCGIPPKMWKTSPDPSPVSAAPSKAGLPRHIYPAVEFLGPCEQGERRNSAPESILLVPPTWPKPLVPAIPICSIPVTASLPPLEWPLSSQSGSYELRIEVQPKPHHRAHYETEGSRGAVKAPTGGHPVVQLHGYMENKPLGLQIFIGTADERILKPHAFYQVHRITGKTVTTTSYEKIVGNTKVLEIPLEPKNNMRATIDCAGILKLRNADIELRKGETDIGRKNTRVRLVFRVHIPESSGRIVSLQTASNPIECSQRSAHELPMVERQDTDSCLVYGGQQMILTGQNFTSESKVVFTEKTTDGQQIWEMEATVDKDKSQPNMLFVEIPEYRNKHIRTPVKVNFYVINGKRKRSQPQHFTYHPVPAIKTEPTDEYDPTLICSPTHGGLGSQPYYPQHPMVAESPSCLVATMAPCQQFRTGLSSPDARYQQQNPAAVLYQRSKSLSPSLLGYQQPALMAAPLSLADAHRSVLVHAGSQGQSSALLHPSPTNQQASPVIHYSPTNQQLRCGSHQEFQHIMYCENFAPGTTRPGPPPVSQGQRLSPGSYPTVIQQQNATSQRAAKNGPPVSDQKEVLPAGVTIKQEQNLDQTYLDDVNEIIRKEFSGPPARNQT
# UniProt Q9NQR4: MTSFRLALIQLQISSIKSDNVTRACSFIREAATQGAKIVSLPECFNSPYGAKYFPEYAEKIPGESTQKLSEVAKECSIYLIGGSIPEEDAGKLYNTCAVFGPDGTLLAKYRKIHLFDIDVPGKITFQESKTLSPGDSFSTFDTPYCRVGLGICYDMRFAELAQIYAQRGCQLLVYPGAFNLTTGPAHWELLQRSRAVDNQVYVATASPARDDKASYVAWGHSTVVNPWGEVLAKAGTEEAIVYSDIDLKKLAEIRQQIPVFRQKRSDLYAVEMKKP
# UniProt O95169, whole entry, looked up: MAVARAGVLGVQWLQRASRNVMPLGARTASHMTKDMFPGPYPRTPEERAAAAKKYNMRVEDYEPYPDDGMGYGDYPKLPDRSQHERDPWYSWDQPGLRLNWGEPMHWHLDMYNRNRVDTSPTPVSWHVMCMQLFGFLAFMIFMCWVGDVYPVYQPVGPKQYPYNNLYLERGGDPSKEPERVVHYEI
# UniProt O43181, whole entry, looked up: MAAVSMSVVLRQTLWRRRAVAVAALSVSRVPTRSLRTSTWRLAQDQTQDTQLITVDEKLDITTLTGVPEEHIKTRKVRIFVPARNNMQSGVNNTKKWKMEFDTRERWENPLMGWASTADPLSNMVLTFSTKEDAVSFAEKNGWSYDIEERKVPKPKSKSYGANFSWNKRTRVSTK
# UniProt Q8NC96: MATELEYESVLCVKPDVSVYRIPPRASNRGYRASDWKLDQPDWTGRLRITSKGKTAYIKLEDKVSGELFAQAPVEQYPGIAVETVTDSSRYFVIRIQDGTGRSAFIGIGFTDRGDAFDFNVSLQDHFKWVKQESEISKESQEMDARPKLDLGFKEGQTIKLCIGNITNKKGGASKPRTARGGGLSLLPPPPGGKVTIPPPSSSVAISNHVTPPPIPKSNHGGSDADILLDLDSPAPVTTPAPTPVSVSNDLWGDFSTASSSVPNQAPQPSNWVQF
# UniProt Q15843, whole entry, looked up: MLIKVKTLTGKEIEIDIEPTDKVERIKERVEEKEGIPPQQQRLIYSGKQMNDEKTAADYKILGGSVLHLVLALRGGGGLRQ
# UniProt O75323: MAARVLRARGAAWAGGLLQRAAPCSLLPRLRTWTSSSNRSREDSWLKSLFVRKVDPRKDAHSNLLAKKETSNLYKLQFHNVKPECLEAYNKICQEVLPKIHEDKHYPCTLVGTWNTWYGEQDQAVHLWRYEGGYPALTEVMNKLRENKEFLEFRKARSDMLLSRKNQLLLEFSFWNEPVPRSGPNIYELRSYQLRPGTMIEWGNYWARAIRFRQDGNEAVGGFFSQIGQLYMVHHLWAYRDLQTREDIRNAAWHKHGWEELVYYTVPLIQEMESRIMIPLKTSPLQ
# UniProt Q8TD19: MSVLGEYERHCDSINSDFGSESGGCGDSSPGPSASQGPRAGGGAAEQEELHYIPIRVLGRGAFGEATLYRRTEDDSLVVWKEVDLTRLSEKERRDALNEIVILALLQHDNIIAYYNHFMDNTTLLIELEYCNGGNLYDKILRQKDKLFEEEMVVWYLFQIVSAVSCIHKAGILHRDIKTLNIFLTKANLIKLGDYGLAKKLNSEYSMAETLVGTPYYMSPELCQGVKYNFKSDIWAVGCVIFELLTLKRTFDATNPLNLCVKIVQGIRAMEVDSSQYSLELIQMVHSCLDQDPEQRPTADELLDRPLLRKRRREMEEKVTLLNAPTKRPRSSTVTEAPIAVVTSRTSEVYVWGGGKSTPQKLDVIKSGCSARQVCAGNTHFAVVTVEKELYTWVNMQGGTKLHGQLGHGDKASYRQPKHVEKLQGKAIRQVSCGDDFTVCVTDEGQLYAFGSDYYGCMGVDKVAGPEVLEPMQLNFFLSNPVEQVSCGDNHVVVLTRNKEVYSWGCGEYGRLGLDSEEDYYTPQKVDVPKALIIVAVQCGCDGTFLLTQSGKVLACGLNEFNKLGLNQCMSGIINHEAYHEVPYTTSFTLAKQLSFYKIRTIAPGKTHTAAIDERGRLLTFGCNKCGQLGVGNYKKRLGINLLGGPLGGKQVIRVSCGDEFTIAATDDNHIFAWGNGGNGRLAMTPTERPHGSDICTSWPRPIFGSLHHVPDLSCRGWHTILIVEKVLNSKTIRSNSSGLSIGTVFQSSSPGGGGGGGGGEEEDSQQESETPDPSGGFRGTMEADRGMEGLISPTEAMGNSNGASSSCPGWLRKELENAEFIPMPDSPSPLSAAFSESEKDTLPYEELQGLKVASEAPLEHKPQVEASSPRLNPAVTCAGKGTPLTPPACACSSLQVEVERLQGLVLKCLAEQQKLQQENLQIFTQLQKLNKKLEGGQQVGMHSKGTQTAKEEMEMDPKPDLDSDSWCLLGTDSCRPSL
# UniProt Q9NPE2: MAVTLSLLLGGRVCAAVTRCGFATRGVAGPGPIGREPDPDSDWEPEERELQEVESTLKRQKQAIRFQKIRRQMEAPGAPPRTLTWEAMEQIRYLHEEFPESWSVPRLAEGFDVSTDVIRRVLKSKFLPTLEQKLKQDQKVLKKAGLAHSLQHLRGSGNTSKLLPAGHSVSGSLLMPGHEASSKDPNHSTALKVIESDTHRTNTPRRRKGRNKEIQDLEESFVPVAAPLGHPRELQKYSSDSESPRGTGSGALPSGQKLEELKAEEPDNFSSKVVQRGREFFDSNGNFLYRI
# UniProt O95167, whole entry, looked up: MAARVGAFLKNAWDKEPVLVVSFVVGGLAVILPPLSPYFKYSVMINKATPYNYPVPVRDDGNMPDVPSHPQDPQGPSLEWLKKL
# UniProt Q9NX24: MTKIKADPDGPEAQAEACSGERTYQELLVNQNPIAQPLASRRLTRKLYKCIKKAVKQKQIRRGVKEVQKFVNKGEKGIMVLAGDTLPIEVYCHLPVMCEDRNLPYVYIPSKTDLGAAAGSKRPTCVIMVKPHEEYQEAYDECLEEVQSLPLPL
# UniProt Q9UMS0: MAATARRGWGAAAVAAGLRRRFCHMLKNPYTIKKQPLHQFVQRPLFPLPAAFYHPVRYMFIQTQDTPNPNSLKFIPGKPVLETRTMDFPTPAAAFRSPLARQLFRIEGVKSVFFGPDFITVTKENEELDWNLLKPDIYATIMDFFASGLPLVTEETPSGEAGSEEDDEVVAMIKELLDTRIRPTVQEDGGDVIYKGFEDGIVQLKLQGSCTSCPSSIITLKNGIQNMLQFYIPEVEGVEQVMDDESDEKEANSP
# UniProt O95182, whole entry, looked up: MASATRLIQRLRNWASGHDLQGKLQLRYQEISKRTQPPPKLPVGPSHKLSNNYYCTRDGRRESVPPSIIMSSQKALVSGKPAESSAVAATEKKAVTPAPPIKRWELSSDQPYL
# UniProt P49821, whole entry, looked up: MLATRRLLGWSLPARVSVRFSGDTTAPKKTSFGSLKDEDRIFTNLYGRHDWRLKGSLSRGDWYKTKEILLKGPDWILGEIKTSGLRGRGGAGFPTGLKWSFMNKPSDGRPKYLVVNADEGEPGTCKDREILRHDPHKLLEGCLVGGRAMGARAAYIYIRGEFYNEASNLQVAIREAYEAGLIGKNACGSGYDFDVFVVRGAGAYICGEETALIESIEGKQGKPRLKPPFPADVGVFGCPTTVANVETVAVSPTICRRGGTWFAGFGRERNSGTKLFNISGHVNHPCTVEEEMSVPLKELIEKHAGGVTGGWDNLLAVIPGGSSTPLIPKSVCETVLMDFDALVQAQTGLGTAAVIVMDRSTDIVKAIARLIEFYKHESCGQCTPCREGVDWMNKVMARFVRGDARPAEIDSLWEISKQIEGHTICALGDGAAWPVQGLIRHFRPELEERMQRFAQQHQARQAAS
# UniProt O76041: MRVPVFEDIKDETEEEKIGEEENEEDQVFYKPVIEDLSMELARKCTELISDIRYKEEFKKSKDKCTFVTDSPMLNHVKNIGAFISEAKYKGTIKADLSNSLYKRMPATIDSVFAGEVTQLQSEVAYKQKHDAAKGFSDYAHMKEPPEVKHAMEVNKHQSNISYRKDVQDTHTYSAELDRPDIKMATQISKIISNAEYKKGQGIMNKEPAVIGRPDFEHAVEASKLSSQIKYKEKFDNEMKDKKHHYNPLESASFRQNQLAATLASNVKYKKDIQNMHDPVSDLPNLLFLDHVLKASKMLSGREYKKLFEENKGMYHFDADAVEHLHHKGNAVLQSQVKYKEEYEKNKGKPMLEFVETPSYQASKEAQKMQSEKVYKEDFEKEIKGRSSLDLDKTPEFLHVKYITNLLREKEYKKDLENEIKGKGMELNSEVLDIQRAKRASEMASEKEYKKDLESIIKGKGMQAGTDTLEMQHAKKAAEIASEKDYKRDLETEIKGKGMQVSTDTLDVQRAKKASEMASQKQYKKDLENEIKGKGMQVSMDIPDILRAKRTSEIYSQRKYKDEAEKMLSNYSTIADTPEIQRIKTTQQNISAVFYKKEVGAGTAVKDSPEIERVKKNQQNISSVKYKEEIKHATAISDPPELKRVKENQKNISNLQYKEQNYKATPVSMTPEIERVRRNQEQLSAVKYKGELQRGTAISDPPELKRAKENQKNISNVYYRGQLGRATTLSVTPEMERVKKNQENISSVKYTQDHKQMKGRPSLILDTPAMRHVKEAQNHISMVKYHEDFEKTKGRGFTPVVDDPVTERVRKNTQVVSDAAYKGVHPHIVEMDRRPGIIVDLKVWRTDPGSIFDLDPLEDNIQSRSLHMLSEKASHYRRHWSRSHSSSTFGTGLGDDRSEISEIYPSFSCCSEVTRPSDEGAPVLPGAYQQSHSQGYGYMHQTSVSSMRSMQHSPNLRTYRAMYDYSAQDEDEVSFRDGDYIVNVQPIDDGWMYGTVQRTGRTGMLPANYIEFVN
# UniProt Q5TEU4: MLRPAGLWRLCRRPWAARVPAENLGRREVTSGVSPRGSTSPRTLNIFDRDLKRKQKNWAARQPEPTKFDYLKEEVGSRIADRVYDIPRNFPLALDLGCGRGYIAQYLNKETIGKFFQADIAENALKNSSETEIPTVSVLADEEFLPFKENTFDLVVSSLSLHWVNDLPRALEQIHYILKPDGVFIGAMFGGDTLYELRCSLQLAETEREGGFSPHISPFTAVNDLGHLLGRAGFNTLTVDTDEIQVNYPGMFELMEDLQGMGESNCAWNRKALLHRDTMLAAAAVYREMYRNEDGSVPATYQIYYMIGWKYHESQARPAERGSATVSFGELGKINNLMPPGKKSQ
# UniProt Q86SG6: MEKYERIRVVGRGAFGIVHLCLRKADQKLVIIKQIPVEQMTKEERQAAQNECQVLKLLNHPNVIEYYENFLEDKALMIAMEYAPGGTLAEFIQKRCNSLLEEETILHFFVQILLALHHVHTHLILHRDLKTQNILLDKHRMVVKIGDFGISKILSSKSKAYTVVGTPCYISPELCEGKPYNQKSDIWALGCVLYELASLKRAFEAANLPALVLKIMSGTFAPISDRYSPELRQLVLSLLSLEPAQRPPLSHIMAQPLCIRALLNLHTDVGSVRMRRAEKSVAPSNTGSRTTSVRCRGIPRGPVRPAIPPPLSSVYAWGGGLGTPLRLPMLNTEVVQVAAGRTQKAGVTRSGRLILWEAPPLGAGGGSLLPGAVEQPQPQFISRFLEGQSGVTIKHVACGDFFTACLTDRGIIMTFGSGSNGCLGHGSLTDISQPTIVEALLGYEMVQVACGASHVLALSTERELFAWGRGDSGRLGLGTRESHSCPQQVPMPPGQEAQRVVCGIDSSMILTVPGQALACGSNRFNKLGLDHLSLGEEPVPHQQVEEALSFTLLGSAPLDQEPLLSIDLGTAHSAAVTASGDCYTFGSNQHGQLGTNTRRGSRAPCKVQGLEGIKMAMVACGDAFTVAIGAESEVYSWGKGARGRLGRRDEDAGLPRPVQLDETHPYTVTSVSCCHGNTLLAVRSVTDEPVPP
# The list shows a part of the results.
# Key:
# Assay in all cases: log2 fold change, soluble protein after heating vs DMSO (PISA); higher = thermal stabilisation; K562 lysate, 10 uM; active = over 0.2 and 3.5 SD of the protein, either way, in both replicates (recomputed)
# [1] = compound: CN1CC[C@H](c2c(O)cc(O)c3c(=O)cc(-c4ccccc4Cl)oc23)[C@H](O)C1 [alvocidib]
# Summary of the method: (§1)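 K562 pellets were dounce-homogenised in PBS pH 7.4 containing 1 mM MgCl2, and the crude extract, at 1 mg/mL protein, was exposed to 10 μM compound for 30 min. Aliquots were heated for 3 min across 48°C-58°C, pooled, brought to 0.5% NP-40 at 4°C and spun at 21,000xg for 90 min, with the supernatant taken as soluble protein. TMTpro 16plex LC-MS/MS with equalised channel sums quantified that protein. Values are log-two fold changes in thermal stability relative to solvent controls, taken from duplicates.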
# [2] = compound: CN1CCc2c(c3ccccc3n2Cc2ccc(C(=O)NO)cc2)C1 [Tubastatin A]
# Summary of the method: as §1
# [3] = compound: CNC(=O)C1=CC=CC=C1NC2=NC(=NC=C2Cl)NC3=C(C=C(C=C3)N4CCOCC4)OC
# Summary of the method: as §1
# [4] = compound: CNC(=O)c1ccc(Nc2ncc(C(F)(F)F)c(NCc3nccnc3N(C)S(C)(=O)=O)n2)cc1 [defactinib]
# Summary of the method: as §1
# [5] = compound: CNc1nc(-c2ccc3c(N)n[nH]c3c2)cc(N2C[C@@H](C(=O)NC3CCCCC3)CC[C@H]2C)n1
# Summary of the method: as §1
# [6] = compound: COC(=O)N[C@@H](C)CNc1nccc(-c2cn(C(C)C)nc2-c2cc(Cl)cc(NS(C)(=O)=O)c2F)n1 [encorafenib]
# Summary of the method: as §1
# [7] = compound: COC(=O)[C@H](CCSC)NC(=O)C1=C(C=C(C=C1)NC[C@H](CS)N)C2=CC=CC=C2
# Summary of the method: as §1
# [8] = compound: COc1cc(Nc2ncc3c(n2)-c2ccc(Cl)cc2C(c2c(F)cccc2OC)=NC3)ccc1C(=O)O [alisertib]
# Summary of the method: as §1
# [9] = compound: COc1cc2nc(-c3cc(F)ccc3O)nc(N[C@@H]3CNC[C@H]3C(C)(C)O)c2cc1OC
# Summary of the method: as §1
# [10] = compound: COc1cc2ncnc(Nc3ccc(F)c(Cl)c3)c2cc1OCCCN1CCOCC1 [gefitinib]
# Summary of the method: as §1
Target,log2 fold change [1],log2 fold change [2],log2 fold change [3],log2 fold change [4],log2 fold change [5],log2 fold change [6],log2 fold change [7],log2 fold change [8],log2 fold change [9],log2 fold change [10]
NLRP2 (UniProt Q9NX02),inactive: 0.034,inactive: -0.227,inactive: 0,inactive: 0.024,inactive: -0.044,inactive: 0.034,active: -0.239,inactive: -0.025,inactive: 0,inactive: -0.012
NFATC2 (UniProt Q13469),inactive: -0.12,inactive: -0.118,inactive: 0.021,inactive: -0.028,inactive: 0.06,inactive: 0.004,inactive: 0.1,inactive: -0.047,inactive: -0.007,inactive: -0.025
NIT2 (UniProt Q9NQR4),inactive: 0.046,inactive: 0.047,inactive: -0.003,inactive: -0.05,inactive: 0.013,inactive: -0.032,inactive: 0.082,inactive: 0.012,inactive: 0.019,inactive: -0.017
NDUFB6 (UniProt O95139),inactive: -0.048,inactive: 0.016,inactive: -0.007,inactive: 0.01,inactive: -0.017,inactive: 0.042,inactive: -0.042,inactive: -0.013,inactive: 0.008,inactive: 0.031
NDUFB8 (UniProt O95169),inactive: 0.025,inactive: 0.089,inactive: 0.069,inactive: 0.105,inactive: 0.085,inactive: -0.03,inactive: -0.027,inactive: 0.059,inactive: -0.033,inactive: -0.143
NELFCD (UniProt Q8IXH7),inactive: 0.015,inactive: -0.148,inactive: 0.047,inactive: 0.041,inactive: -0.055,inactive: 0,inactive: 0.073,inactive: 0.023,inactive: -0.006,inactive: -0.009
NDUFS4 (UniProt O43181),inactive: -0.03,inactive: -0.017,inactive: -0.052,inactive: -0.008,inactive: -0.005,inactive: -0.016,inactive: -0.029,inactive: -0.04,inactive: -0.018,inactive: 0.042
NDUFA9 (UniProt Q16795),inactive: 0.029,inactive: 0.158,inactive: -0.039,inactive: -0.037,inactive: -0.044,inactive: -0.026,inactive: 0.068,inactive: 0.038,inactive: -0.09,inactive: -0.037
NECAP1 (UniProt Q8NC96),inactive: -0.023,inactive: 0.067,inactive: 0.045,inactive: -0.009,inactive: -0.016,inactive: 0.025,inactive: -0.014,inactive: 0.036,inactive: -0.012,inactive: 0.005
NEK3 (UniProt P51956),inactive: -0.059,inactive: -0.054,inactive: 0.068,inactive: 0.111,inactive: 0.044,inactive: 0.036,inactive: -0.024,inactive: -0.105,inactive: 0.015,inactive: 0.056
NEDD8 (UniProt Q15843),inactive: 0.169,inactive: 0.132,inactive: 0.083,inactive: 0.019,inactive: 0.037,inactive: 0.015,inactive: -0.062,inactive: 0.021,inactive: -0.03,inactive: -0.148
NIPSNAP2 (UniProt O75323),inactive: 0.027,inactive: -0.015,inactive: 0.044,inactive: 0.048,inactive: 0.077,inactive: -0.02,inactive: 0.163,inactive: 0.04,inactive: -0.073,inactive: -0.044
NEK9 (UniProt Q8TD19),inactive: -0.062,inactive: -0.062,inactive: 0.193,inactive: 0.08,inactive: -0.009,inactive: -0.018,inactive: -0.008,inactive: -0.048,inactive: -0.01,inactive: -0.039
NGRN (UniProt Q9NPE2),inactive: -0.008,inactive: 0.005,inactive: -0.047,inactive: -0.013,inactive: -0.011,inactive: -0.01,inactive: -0.015,inactive: -0.091,inactive: -0.015,inactive: 0.037
NDUFA3 (UniProt O95167),inactive: 0.056,inactive: 0.066,inactive: -0.017,inactive: -0.144,inactive: 0.055,inactive: 0.016,inactive: 0.045,inactive: 0.094,–,inactive: -0.104
NDUFAF2 (UniProt Q8N183),inactive: -0.061,inactive: -0.058,inactive: 0.018,inactive: -0.005,inactive: 0.087,inactive: -0.002,inactive: -0.006,inactive: 0.01,inactive: -0.014,inactive: 0.017
NHLRC3 (UniProt Q5JS37),inactive: -0.005,inactive: 0.062,inactive: 0.069,inactive: -0.069,inactive: -0.059,inactive: 0,inactive: 0.006,inactive: 0.034,inactive: 0.006,inactive: 0.08
NDST2 (UniProt P52849),inactive: 0.097,inactive: -0.037,inactive: -0.087,inactive: 0.01,inactive: 0.024,inactive: 0.13,inactive: 0.253,inactive: -0.023,inactive: 0.057,inactive: 0.035
NHP2 (UniProt Q9NX24),inactive: -0.083,inactive: 0.001,inactive: -0.017,inactive: 0.024,inactive: -0.058,inactive: 0.079,inactive: -0.032,inactive: -0.03,inactive: 0.023,inactive: 0.03
NIBAN1 (UniProt Q9BZQ8),inactive: 0.001,inactive: -0.061,inactive: 0.017,inactive: 0.02,inactive: -0.036,inactive: 0.007,inactive: 0.034,inactive: -0.049,inactive: -0.012,inactive: 0.022
NFU1 (UniProt Q9UMS0),inactive: 0.048,inactive: 0.026,inactive: -0.001,inactive: -0.019,inactive: 0.018,inactive: -0.008,inactive: -0.027,inactive: 0.046,inactive: 0.012,inactive: -0.061
NDC80 (UniProt O14777),inactive: 0.003,inactive: -0.094,inactive: 0.022,inactive: 0.023,inactive: -0.043,inactive: -0.009,inactive: 0.092,inactive: 0.025,inactive: 0.007,inactive: -0.023
NDUFA7 (UniProt O95182),inactive: 0.002,inactive: 0.032,inactive: 0.001,inactive: 0.053,inactive: 0.023,inactive: -0.026,inactive: -0.127,inactive: 0.019,inactive: -0.073,inactive: 0.036
NEU1 (UniProt Q99519),inactive: -0.022,inactive: 0.015,inactive: 0.019,inactive: 0.047,inactive: -0.074,inactive: 0.041,inactive: 0.018,inactive: -0.1,inactive: 0.006,inactive: -0.016
NDUFV1 (UniProt P49821),inactive: 0.022,inactive: 0.029,inactive: -0.017,inactive: -0.019,inactive: 0.016,inactive: -0.026,inactive: 0.025,inactive: 0.016,inactive: -0.021,inactive: -0.024
NEBL (UniProt O76041),inactive: 0.149,inactive: 0.022,inactive: -0.048,inactive: 0.024,inactive: 0.043,inactive: -0.083,inactive: 0.015,inactive: -0.134,inactive: -0.005,inactive: 0
NDUFAF5 (UniProt Q5TEU4),inactive: -0.004,inactive: 0.12,inactive: -0.068,inactive: -0.047,inactive: 0.175,inactive: 0.18,inactive: -0.065,–,inactive: -0.033,–
NFS1 (UniProt Q9Y697),inactive: -0.032,inactive: 0.036,inactive: 0.011,inactive: -0.008,inactive: 0.003,inactive: -0.028,inactive: -0.022,inactive: 0.033,inactive: 0.009,inactive: -0.011
NEK8 (UniProt Q86SG6),inactive: -0.043,inactive: 0.036,inactive: 0.097,inactive: 0.01,–,–,–,inactive: -0.222,–,inactive: -0.048
NLRX1 (UniProt Q86UT6),inactive: -0.12,–,inactive: -0.143,inactive: 0.125,–,inactive: 0.107,inactive: 0.065,–,–,–

# As entered above:
# NELFCD (UniProt Q8IXH7) – log2 fold change [7]: inactive: 0.073
# NHP2 (UniProt Q9NX24) – log2 fold change [5]: inactive: -0.058
